Test results published in paper PMC10371147.
These are yes or no findings as the source states them, for the method shown. Binding seen in cells or lysates may run through a third protein. Some entries that bind do so weakly or less than the wild type. For part of these data: Tags and fused reporters may be left off the sequences shown. Each block holds one substance with its values, some of them ahead of it.

The chains behind the UniProt entries cited, without tags or fusion partners.
UniProt Q8CD54: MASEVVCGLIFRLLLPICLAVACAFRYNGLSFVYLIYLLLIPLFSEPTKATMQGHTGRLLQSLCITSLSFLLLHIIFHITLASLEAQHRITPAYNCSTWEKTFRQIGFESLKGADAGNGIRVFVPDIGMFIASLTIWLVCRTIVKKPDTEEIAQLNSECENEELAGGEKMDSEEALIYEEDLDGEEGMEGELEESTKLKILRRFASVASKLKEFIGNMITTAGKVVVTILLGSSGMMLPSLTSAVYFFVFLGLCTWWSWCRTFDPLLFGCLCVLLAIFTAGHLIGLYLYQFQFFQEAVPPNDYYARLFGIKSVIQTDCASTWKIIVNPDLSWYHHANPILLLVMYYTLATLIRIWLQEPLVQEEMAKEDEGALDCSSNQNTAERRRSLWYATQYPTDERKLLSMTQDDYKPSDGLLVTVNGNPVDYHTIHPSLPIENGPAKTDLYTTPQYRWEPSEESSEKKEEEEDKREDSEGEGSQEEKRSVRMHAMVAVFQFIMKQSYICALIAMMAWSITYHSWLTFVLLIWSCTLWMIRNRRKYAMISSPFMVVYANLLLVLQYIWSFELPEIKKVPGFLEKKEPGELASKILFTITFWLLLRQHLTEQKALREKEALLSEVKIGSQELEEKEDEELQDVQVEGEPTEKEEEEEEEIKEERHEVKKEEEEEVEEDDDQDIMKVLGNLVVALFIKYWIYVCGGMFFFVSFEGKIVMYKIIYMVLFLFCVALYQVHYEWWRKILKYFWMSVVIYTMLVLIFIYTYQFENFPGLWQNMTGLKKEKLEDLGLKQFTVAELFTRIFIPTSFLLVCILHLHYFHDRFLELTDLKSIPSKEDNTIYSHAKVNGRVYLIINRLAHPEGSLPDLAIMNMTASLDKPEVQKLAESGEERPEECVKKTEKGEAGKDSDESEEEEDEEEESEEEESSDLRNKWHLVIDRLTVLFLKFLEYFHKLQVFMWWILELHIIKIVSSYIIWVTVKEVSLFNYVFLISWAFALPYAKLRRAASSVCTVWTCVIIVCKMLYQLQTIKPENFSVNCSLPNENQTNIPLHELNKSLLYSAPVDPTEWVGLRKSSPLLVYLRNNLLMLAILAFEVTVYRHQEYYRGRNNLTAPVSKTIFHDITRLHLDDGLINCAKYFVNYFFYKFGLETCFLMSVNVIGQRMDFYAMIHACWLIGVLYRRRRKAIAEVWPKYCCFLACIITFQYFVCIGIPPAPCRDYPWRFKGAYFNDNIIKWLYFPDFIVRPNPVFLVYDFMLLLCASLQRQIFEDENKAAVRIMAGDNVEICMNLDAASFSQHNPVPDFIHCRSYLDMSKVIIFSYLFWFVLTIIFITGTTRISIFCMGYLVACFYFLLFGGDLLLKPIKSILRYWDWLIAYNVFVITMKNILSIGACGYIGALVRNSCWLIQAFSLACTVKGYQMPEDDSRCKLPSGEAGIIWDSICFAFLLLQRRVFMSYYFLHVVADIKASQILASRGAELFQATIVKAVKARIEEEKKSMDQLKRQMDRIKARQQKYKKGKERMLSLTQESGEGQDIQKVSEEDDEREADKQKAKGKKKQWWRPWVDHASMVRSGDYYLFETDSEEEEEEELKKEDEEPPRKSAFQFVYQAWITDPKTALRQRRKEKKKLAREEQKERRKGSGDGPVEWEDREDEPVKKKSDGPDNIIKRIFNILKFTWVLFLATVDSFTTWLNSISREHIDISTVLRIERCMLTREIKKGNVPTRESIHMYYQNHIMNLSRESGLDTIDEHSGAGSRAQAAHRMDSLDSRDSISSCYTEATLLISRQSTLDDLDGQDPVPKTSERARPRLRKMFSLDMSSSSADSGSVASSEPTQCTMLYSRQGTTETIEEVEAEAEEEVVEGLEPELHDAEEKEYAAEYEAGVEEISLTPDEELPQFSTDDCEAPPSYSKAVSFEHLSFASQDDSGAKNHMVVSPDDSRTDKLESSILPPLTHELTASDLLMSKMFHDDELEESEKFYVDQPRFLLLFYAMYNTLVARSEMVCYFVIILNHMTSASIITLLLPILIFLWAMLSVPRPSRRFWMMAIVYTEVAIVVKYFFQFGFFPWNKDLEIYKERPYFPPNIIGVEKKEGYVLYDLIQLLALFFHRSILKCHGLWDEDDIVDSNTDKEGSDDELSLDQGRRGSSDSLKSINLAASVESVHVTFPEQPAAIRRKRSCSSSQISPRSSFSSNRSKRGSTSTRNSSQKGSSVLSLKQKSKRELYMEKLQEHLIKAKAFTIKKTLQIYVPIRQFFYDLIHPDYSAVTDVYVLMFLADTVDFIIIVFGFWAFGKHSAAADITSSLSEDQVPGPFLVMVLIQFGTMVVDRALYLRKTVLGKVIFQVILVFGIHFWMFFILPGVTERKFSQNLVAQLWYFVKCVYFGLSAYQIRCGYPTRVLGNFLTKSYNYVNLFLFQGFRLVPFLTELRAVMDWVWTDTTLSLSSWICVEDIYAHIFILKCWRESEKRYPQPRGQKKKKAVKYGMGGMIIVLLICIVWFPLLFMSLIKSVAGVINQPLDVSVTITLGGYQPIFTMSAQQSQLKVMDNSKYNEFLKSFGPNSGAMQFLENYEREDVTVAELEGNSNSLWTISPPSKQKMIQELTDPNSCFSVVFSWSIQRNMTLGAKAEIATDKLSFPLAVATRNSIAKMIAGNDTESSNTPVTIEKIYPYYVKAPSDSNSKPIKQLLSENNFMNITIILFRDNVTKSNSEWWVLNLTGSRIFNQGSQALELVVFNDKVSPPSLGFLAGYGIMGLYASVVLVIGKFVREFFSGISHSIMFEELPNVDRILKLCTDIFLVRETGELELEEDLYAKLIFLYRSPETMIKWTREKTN
UniProt E2JF22: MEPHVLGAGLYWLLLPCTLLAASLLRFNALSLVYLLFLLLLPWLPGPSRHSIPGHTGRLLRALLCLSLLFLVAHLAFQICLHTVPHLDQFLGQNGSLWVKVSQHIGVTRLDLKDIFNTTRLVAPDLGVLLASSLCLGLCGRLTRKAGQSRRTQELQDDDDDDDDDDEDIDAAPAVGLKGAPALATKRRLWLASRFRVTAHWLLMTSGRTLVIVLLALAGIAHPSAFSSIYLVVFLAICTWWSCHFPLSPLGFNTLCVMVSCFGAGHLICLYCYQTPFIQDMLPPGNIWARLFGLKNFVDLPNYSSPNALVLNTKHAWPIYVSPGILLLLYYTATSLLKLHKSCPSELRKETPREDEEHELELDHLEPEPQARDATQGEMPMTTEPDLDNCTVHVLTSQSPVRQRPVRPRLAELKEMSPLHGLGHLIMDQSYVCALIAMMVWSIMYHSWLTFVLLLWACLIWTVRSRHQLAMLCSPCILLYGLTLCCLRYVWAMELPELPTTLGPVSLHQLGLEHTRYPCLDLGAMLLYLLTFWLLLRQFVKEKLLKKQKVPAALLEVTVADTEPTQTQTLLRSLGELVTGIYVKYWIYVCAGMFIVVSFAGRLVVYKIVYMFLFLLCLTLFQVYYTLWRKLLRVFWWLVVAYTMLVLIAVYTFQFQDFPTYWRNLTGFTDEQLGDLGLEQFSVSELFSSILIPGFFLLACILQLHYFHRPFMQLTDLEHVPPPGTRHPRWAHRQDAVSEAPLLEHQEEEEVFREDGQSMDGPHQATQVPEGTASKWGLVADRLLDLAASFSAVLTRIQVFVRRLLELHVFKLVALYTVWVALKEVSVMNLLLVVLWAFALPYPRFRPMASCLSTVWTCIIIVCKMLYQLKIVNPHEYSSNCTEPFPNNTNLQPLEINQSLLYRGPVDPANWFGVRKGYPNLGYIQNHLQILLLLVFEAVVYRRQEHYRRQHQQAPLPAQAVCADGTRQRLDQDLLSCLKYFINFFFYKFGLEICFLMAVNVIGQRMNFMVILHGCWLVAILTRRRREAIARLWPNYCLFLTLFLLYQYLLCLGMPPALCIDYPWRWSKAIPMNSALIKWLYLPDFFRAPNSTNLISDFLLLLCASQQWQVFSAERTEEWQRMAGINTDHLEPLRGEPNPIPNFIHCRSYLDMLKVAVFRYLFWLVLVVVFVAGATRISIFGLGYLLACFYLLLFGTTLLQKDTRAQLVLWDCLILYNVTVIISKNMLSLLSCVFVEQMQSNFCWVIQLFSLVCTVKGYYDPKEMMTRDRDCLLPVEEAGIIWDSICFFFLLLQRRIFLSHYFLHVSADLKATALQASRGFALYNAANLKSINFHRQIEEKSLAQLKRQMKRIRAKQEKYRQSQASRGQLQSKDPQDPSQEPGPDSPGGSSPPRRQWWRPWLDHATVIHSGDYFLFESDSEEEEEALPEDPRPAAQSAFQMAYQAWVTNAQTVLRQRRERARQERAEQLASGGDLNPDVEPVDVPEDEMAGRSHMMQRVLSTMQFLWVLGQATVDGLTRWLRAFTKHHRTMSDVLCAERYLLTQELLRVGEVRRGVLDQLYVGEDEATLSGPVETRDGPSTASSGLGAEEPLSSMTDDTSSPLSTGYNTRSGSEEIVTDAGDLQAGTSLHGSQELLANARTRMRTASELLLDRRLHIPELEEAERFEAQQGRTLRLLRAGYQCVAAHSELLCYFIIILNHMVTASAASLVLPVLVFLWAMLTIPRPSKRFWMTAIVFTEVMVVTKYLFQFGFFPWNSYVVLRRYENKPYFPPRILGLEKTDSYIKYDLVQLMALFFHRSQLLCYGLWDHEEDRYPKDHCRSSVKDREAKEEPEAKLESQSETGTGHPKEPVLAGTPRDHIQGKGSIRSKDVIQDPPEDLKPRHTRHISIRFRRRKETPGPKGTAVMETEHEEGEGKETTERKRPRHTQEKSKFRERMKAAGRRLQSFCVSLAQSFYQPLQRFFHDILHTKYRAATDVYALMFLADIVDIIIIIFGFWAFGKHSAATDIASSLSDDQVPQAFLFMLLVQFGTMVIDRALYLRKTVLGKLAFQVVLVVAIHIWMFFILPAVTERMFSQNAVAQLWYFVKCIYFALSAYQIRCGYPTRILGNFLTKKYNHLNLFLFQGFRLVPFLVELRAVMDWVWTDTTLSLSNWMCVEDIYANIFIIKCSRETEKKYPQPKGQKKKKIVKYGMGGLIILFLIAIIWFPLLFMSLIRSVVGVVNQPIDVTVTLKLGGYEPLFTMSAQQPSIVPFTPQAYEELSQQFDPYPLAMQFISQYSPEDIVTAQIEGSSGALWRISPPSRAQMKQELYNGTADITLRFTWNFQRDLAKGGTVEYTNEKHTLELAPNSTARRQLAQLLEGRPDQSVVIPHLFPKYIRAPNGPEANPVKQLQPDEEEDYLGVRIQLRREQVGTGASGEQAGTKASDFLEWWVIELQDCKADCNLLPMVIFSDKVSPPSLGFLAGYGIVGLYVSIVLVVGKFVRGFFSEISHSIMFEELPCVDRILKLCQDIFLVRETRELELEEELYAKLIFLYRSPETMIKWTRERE

Assays:
[1] = biological target: Piezo2-GFP fusion protein (Pz2-GFP mouse) (mouse) (UniProt Q8CD54); test: proximity ligation; hair cells of Pz1-tdT/Pz2-GFP mice (P10), stereocilia and cuticular plate membrane, confocal Z-projections
[2] = biological target: T1, Tmc2-AcGFP fusion protein (Tmc2-AcGFP transgenic mouse) (mouse) (UniProt Q8R4P4); test: co-IP; cochlear tissue lysates of Tmc2-AcGFP:Pz1-tdT and Tmc1-mCherry:Pz2-GFP mice, GFP antibody overnight at 4 C, Dynabeads Protein G, immunoblot with anti-tdTomato or anti-mCherry
T1 sequence: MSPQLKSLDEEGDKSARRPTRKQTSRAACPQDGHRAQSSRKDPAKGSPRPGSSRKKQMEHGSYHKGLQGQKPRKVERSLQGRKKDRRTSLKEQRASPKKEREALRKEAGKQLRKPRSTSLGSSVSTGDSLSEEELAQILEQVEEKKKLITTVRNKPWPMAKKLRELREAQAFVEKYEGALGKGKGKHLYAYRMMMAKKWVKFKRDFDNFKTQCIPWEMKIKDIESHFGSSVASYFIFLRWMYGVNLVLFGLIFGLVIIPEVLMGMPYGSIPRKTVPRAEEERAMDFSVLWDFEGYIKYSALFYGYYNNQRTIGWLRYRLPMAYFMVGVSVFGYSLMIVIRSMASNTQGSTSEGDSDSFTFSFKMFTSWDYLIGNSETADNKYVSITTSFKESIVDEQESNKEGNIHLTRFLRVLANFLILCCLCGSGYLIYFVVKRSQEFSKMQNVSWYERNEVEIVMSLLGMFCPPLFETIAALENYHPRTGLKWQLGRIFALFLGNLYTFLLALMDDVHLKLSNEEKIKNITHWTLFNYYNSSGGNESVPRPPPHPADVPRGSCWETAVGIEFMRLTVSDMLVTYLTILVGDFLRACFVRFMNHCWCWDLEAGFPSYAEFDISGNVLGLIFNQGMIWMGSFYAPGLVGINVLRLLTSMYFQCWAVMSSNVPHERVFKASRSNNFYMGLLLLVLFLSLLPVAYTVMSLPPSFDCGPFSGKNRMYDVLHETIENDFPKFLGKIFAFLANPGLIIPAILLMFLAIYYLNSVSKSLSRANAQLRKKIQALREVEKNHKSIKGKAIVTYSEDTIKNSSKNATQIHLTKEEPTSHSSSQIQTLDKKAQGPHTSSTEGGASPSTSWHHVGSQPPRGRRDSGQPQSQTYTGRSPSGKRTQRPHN

[3] = biological target: HA-tagged mouse Pcdh15 (mouse) (UniProt Q99PJ1); test: co-IP; lysates of HEK 293 cells co-transfected with Pz1-FLAG and one tagged partner, harvested 48 h after transfection, antibody on Dynabeads Protein G, 20 min at RT, Western blot with antibodies to the tags
[4] = biological target: T2, mCherry-tagged mouse Tmc1 (HEK 293) (mouse) (UniProt Q8R4P5); test: as above
T2 sequence: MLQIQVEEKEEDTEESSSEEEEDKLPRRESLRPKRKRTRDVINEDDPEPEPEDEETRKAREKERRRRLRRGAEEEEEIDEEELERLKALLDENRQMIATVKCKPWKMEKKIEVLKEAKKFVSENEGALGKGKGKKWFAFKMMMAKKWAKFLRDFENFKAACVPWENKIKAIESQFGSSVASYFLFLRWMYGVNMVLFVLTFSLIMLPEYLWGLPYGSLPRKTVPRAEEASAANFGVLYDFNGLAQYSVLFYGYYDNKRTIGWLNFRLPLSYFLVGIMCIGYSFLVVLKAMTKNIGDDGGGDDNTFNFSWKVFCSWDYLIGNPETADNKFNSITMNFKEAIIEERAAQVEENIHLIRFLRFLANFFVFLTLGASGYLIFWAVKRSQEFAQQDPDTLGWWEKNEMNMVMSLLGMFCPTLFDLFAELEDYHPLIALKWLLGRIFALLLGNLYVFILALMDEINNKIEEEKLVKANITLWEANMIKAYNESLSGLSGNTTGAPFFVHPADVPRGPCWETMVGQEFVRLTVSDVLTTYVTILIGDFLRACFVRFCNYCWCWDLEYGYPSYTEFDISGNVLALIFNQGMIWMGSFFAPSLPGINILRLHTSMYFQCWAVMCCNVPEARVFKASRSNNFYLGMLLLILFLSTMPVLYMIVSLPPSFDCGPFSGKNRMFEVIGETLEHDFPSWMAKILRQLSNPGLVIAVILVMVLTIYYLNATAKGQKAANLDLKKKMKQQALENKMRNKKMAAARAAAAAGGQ

[5] = biological target: T3, mCherry-tagged mouse Tmc2 (HEK 293) (mouse) (UniProt Q8R4P4); test: as above
T3 sequence: T1 sequence

[6] = biological target: T4, His-tagged mouse Tmie (mouse) (UniProt Q8K467); test: as above
T4 sequence: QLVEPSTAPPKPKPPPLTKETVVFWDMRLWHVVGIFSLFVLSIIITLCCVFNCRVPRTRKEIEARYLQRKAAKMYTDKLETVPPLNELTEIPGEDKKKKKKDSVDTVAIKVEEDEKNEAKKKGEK

[7] = biological target: T5, V5-tagged mouse Cib2 (mouse) (UniProt Q9Z309); test: as above
T5 sequence: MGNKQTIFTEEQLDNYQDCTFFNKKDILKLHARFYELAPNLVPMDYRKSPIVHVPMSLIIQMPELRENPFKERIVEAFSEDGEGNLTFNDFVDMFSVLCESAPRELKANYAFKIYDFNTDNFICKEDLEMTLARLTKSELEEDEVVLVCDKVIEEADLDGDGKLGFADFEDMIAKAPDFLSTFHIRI

[8] = biological target: T2, mCherry-tagged mouse Tmc1 (HEK 293) (mouse); test: co-IP; HEK 293 cells transfected with mCherry-Tmc1 or mCherry-Tmc2 alone, endogenous Pz1 detected with anti-mPz1
[9] = biological target: T3, mCherry-tagged mouse Tmc2 (HEK 293) (mouse); test: as above

binding [1]: binds
binding [2]: binds
Substance: Piezo1-tdTomato fusion protein (Pz1-tdT knock-in mouse) (from UniProt E2JF22 1-2547)

binding [3]: binds
binding [4]: binds
binding [5]: binds
binding [6]: binds
binding [7]: binds
Substance: FLAG-tagged mouse Pz1 (Flag-mPz1) (from UniProt E2JF22 1-2547)

binding [8]: binds
binding [9]: binds
Substance: Pz1 endogenously expressed in HEK 293 cells (from UniProt Q92508 1-2521)
